# In the supplement of paper PMC8728848:
# The other results are listed elsewhere or left out.
# B1: Epa20 (Candida glabrata) (protein)
# chain: MGSSHHHHHHSSGLVPRGSHMASSNIPNNYPLGCSNKYSGHLPGLKMELYSYNYVNPRHPDPQNPGKLDQLYDPNLLGTYECFDSSYKDINYPRVGYKSKTLIGRSDGVSGILNFNFVPPWGCMPQKGQLPPAYNFKSNITLSNFTMILFGYFKPKISGNHIFSLHGDDLIYLNFGAGNAFDCCRQESSADNFGNYQAFSLWGINWEKKTLTVYLDMNTYYPIRIFYNNRDYQAIFNFSFKTEFDSSPVIDFQDYFFFLRDIDGGCPGEV
# Key:
# Assay in all cases: glycan array binding signal (z-score within array); higher = stronger binding
# Details in all cases: glycan notation: IUPAC condensed, linker removed
# Gal3S4S(b1-4)GlcNAc = target: Gal3S4S(b1-4)GlcNAc
# Procedure, shortened: (§1)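 Glycan array data came from 3228 arrays in the Consortium for Functional Glycomics database, and only arrays with an available protein sequence were kept. Glycan names were put into IUPAC-condensed notation, and columns mapping to the same glycan were averaged. The binding signal is a within-array Z-score, averaged across arrays of one protein sequence run at different concentrations or buffers and across linkers. A negative Z-score can be read as non-binding.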
# Gal3S6S(b1-4)GlcNAc = target: Gal3S6S(b1-4)GlcNAc
# Procedure, shortened: as §1
# Gal3S6S(b1-4)GlcNAc6S = target: Gal3S6S(b1-4)GlcNAc6S
# Procedure, shortened: as §1
# Gal4S(b1-4)GlcNAc = target: Gal4S(b1-4)GlcNAc
# Procedure, shortened: as §1
# Gal4S6S(b1-4)GlcNAc = target: Gal4S6S(b1-4)GlcNAc
# Procedure, shortened: as §1
# Gal6P(b1-4)GlcNAc = target: Gal6P(b1-4)GlcNAc
# Procedure, shortened: as §1
# Gal6S(b1-3)GlcNAc = target: Gal6S(b1-3)GlcNAc
# Procedure, shortened: as §1
# Gal6S(b1-3)GlcNAc6S = target: Gal6S(b1-3)GlcNAc6S
# Procedure, shortened: as §1
# Gal6S(b1-4)Glc = target: Gal6S(b1-4)Glc
# Procedure, shortened: as §1
# Gal6S(b1-4)Glc6S = target: Gal6S(b1-4)Glc6S
# Procedure, shortened: as §1
# Gal6S(b1-4)GlcNAc = target: Gal6S(b1-4)GlcNAc
# Procedure, shortened: as §1
# Gal6S(b1-4)GlcNAc6S = target: Gal6S(b1-4)GlcNAc6S
# Procedure, shortened: as §1
# GalNAc(a1-3)Gal = target: GalNAc(a1-3)Gal
# Procedure, shortened: as §1
# GalNAc(a1-3)GalNAc = target: GalNAc(a1-3)GalNAc
# Procedure, shortened: as §1
# [1] = target: GalNAc(a1-3)GalNAc(b1-3)Gal(a1-4)Gal(b1-4)Glc
# Procedure, shortened: as §1
# [2] = target: GalNAc(a1-3)GalNAc(b1-3)Gal(a1-4)Gal(b1-4)GlcNAc
# Procedure, shortened: as §1
# GalNAc(b1-3)Gal = target: GalNAc(b1-3)Gal
# Procedure, shortened: as §1
# [3] = target: GalNAc(b1-3)Gal(a1-4)Gal(b1-4)GlcNAc
# Procedure, shortened: as §1
# [4] = target: GalNAc(b1-3)Gal(a1-4)Gal(b1-4)GlcNAc(b1-3)Gal(b1-4)Glc
# Procedure, shortened: as §1
# [5] = target: GalNAc(b1-3)Gal(a1-6)Gal(b1-4)Glc
# Procedure, shortened: as §1
# GalNAc(b1-3)GalNAc = target: GalNAc(b1-3)GalNAc
# Procedure, shortened: as §1
# GalNAc(b1-3)GlcNAc = target: GalNAc(b1-3)GlcNAc
# Procedure, shortened: as §1
# GalNAc(b1-4)Gal(b1-4)Glc = target: GalNAc(b1-4)Gal(b1-4)Glc
# Procedure, shortened: as §1
# GalNAc(b1-4)GlcNAc = target: GalNAc(b1-4)GlcNAc
# Procedure, shortened: as §1
# [6] = target: GalNAc(b1-4)GlcNAc(b1-2)Man
# Procedure, shortened: as §1
# [7] = target: GalNAc(b1-4)GlcNAc(b1-2)Man(a1-3)[GalNAc(b1-4)GlcNAc(b1-2)Man(a1-6)]Man(b1-4)GlcNAc(b1-4)GlcNAc
# Procedure, shortened: as §1
# [8] = target: GalNAc(b1-4)GlcNAc(b1-3)GalNAc(b1-4)GlcNAc
# Procedure, shortened: as §1
# GalNAc(b1-4)GlcNAc6S = target: GalNAc(b1-4)GlcNAc6S
# Procedure, shortened: as §1
# GalNAc(b1-6)GalNAc = target: GalNAc(b1-6)GalNAc
# Procedure, shortened: as §1
# GalNAc3S(b1-4)GlcNAc = target: GalNAc3S(b1-4)GlcNAc
# Procedure, shortened: as §1
# GalNAc3S(b1-4)GlcNAc3S = target: GalNAc3S(b1-4)GlcNAc3S
# Procedure, shortened: as §1
# [9] = target: GalNAc3S(b1-4)[Fuc(a1-3)]GlcNAc
# Procedure, shortened: as §1
# GalNAc4S6S(b1-4)GlcNAc = target: GalNAc4S6S(b1-4)GlcNAc
# Procedure, shortened: as §1
# GalNAc6S(b1-4)GlcNAc = target: GalNAc6S(b1-4)GlcNAc
# Procedure, shortened: as §1
# Glc(a1-4)Glc = target: Glc(a1-4)Glc
# Procedure, shortened: as §1
# [10] = target: Glc(a1-4)Glc(a1-4)Glc(a1-4)Glc
# Procedure, shortened: as §1
# Glc(a1-6)Glc(a1-6)Glc = target: Glc(a1-6)Glc(a1-6)Glc
# Procedure, shortened: as §1
# [11] = target: Glc(a1-6)Glc(a1-6)Glc(a1-6)Glc
# Procedure, shortened: as §1
binder,measurement,setting,value
B1,glycan array binding signal (z-score),Gal3S4S(b1-4)GlcNAc,0.386
same,glycan array binding signal (z-score),Gal3S6S(b1-4)GlcNAc,0.252
same,glycan array binding signal (z-score),Gal3S6S(b1-4)GlcNAc6S,1.8
same,glycan array binding signal (z-score),Gal4S(b1-4)GlcNAc,-0.937
same,glycan array binding signal (z-score),Gal4S6S(b1-4)GlcNAc,-0.653
same,glycan array binding signal (z-score),Gal6P(b1-4)GlcNAc,-0.55
same,glycan array binding signal (z-score),Gal6S(b1-3)GlcNAc,0.001
same,glycan array binding signal (z-score),Gal6S(b1-3)GlcNAc6S,-0.011
same,glycan array binding signal (z-score),Gal6S(b1-4)Glc,-0.438
same,glycan array binding signal (z-score),Gal6S(b1-4)Glc6S,1.88
same,glycan array binding signal (z-score),Gal6S(b1-4)GlcNAc,-0.346
same,glycan array binding signal (z-score),Gal6S(b1-4)GlcNAc6S,0.939
same,glycan array binding signal (z-score),GalNAc(a1-3)Gal,-0.316
same,glycan array binding signal (z-score),GalNAc(a1-3)GalNAc,-0.604
same,glycan array binding signal (z-score),[1],-0.463
same,glycan array binding signal (z-score),[2],0.111
same,glycan array binding signal (z-score),GalNAc(b1-3)Gal,0.029
same,glycan array binding signal (z-score),[3],-0.071
same,glycan array binding signal (z-score),[4],0.562
same,glycan array binding signal (z-score),[5],-0.854
same,glycan array binding signal (z-score),GalNAc(b1-3)GalNAc,-0.495
same,glycan array binding signal (z-score),GalNAc(b1-3)GlcNAc,-0.345
same,glycan array binding signal (z-score),GalNAc(b1-4)Gal(b1-4)Glc,0.506
same,glycan array binding signal (z-score),GalNAc(b1-4)GlcNAc,0.037
same,glycan array binding signal (z-score),[6],-0.708
same,glycan array binding signal (z-score),[7],0.122
same,glycan array binding signal (z-score),[8],0.121
same,glycan array binding signal (z-score),GalNAc(b1-4)GlcNAc6S,0.979
same,glycan array binding signal (z-score),GalNAc(b1-6)GalNAc,-0.566
same,glycan array binding signal (z-score),GalNAc3S(b1-4)GlcNAc,0.176
same,glycan array binding signal (z-score),GalNAc3S(b1-4)GlcNAc3S,0.034
same,glycan array binding signal (z-score),[9],-0.146
same,glycan array binding signal (z-score),GalNAc4S6S(b1-4)GlcNAc,0.033
same,glycan array binding signal (z-score),GalNAc6S(b1-4)GlcNAc,0.304
same,glycan array binding signal (z-score),Glc(a1-4)Glc,-0.316
same,glycan array binding signal (z-score),[10],0.201
same,glycan array binding signal (z-score),Glc(a1-6)Glc(a1-6)Glc,-0.554
same,glycan array binding signal (z-score),[11],-0.223

# An excerpt of these results, tab-delimited:
binder	measurement	setting	value
B1	glycan array binding signal (z-score)	GalNAc(b1-4)GlcNAc6S	0.979
same	glycan array binding signal (z-score)	GalNAc(b1-6)GalNAc	-0.566
